Data on one molecule can be found in patent US10421778B2, “Isoform-selective lysine deacetylase inhibitors” (WASHINGTON UNIVERSITY, priority 2015, dated 2019).

In this assay the test system is Jurkat and primary T cells. Put plainly: Western blot for acetylated histone H3 and acetylated tubulin. It counts as cell-based. As to conditions: 8 hours.

Regarding `O=C(CCCCCCC(=O)Nc1ccccc1)NO` [SAHA, suberoylanilide hydroxamic acid], the “inhibition of deacetylation of histone H3 and tubulin” value was “inhibit deacetylation of both histone H3 and tubulin”.
